The target in data set [1] is T1, CodY (wild type, C-terminal His5) (Bacillus subtilis) (UniProt P39779).
T1 sequence (looked up): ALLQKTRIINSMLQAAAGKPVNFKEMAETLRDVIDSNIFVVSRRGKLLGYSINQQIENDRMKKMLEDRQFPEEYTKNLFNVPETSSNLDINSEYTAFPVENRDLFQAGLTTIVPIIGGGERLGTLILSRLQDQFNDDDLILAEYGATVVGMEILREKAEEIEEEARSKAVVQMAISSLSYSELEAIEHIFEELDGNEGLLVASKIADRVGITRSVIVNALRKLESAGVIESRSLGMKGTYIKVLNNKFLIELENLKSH
Description: EMSA. Particulars: no ILV, EMSA: 20 mM Tris-Cl pH 8.0, 50 mM KCl, 2 mM MgCl2, 5% glycerol, 0.5 mM EDTA, 1 mM DTT, 0.05% Nonidet P, salmon sperm DNA (printed 40-25 ug/ml), room temperature 16 min, recombinant protein, residues 2-259, protein details: C-terminal His5. For orientation: In EMSA bound probe runs differently from free probe, usually more slowly.

Data set [2] concerns the target T2, CodY(L3S)-His5 (Bacillus subtilis) (UniProt P39779).
T2 sequence (looked up, limits assumed): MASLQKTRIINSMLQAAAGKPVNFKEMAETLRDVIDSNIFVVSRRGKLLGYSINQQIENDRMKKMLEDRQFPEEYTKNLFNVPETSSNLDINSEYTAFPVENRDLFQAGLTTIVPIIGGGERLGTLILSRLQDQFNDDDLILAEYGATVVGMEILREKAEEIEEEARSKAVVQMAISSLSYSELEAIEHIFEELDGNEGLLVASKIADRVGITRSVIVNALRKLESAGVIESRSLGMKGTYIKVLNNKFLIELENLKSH
Description: EMSA. Particulars: 10 mM Ile/Leu/Val, EMSA: 20 mM Tris-Cl pH 8.0, 50 mM KCl, 2 mM MgCl2, 5% glycerol, 0.5 mM EDTA, 1 mM DTT, 0.05% Nonidet P, salmon sperm DNA (printed 40-25 ug/ml), room temperature 16 min, recombinant protein, protein details: C-terminal His5.

For data set [3], the target named is T3, CodY (wild type, SEC-MALLS sample) (Bacillus subtilis) (UniProt P39779).
T3 sequence (looked up, limits assumed): T2 sequence (looked up, limits assumed) with S3L
Description: SEC-MALLS. The following applies: recombinant protein.

Residue numbers refer to the chain shown, from its start. Construct, isoform or probe ends are uncertain for at least one entry. A weaker result is weaker than the reference pair of the same experiment. Protein sequences can lack the tags named with them.

Take “TAAAAAATTTGTCGAATTTTCTGAAAATTTT (double strand) [BcaPp8(31)]”: the binding result in data set [1] (no C1 complex, label: 32P 5' on one strand) is “binds more weakly”.
Regarding “CGAATTTTCTGAAAATTTT (double strand) [BcaPp8(19)]”, the binding result is given as “binds more weakly” in data set [2] (very weak, label: 32P 5' on one strand) and “binds more weakly” in data set [1] (very dramatic loss of affinity, label: 32P 5' on one strand).
Consider “CAAAATAAAAAATTTGTCGAATTTTCTGAAAATTTT (double strand) [BcaPp8(36)]”, for which the binding result in data set [2] (less efficient than wild type, C2 only, label: 32P 5' on one strand in EMSA) is on record as “binds more weakly”; in data set [1] (no C1 complex, label: 32P 5' on one strand in EMSA), “binds more weakly”.
As for “CAAAATAAAAAATTTGTCGAATTTTCTGAAAATTTT (double strand) [BcaPp8(36) unlabeled (BcaP36)]”, the binding result was “binds” in data set [3] (10 mM isoleucine, ~130 kDa, four CodY per duplex) and “binds more weakly” in data set [3] (no isoleucine, ~70 kDa, dissociating complex).

The record behind these values is PMC5314169, “Structure of the Branched-chain Amino Acid and GTP-sensing Global Regulator, CodY, from Bacillus subtilis*” (The Journal of Biological Chemistry, 2016).
